In test [1] the target is BAF60a (mouse (endogenous in liver and primary hepatocytes)) (UniProt Q61466). Kind of test: co-IP; mouse primary hepatocytes transfected with vector or the YB-1 plasmid followed by 6-h DF stimulation; immunoblots of precipitated proteins. A general note: Immunoblotting shows a protein as a band on a membrane.
For test [2] the target is unchanged. Kind of test: co-IP; endogenous proteins; mouse liver homogenates/lysates (ad libitum, 24-h fasting, ND or HFD feeding) and mouse primary hepatocyte lysates (untreated, DF 6 h or FFAs 24 h); 40 μg lysate with protein-A/G agarose beads and 1 μg anti-BAF60a or anti-YB-1 antibody overnight; Western blot.
For test [3] the target is unchanged. In words: co-IP; mouse primary hepatocytes infected with Ad-GFP or Ad-PGC-1α followed by 24-h FFA stimulation; immunoblots of precipitated proteins.

Amino acid sequences for entries named in this document (tags omitted).
UniProt Q61466: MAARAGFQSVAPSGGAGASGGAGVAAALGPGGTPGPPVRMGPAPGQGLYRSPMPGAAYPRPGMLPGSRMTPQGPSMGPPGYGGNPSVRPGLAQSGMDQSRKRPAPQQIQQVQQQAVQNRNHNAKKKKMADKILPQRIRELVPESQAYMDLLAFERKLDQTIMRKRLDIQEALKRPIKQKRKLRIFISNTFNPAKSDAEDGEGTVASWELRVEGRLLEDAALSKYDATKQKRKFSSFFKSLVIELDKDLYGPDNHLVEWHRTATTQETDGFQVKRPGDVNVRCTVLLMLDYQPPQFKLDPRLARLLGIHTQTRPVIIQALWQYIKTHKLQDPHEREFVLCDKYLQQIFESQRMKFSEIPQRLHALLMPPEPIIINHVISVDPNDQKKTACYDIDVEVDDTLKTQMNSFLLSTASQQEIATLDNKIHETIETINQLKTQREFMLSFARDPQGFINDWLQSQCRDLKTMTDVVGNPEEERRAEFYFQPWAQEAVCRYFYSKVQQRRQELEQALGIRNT

Drawing on PMC6953711, this text covers binding for two molecules.

These are yes or no findings as the source states them, for the method shown. In cells and extracts the contact can be indirect. Some binding calls cover weakened binding; strength is not graded here. For part of these data: Sequences can lack the tags named with a protein.

B1: peroxisome proliferator-activated receptor-γ coactivator-1α (PGC-1α) (protein, UniProt O70343 1-797)
chain: MAWDMCSQDSVWSDIECAALVGEDQPLCPDLPELDLSELDVNDLDTDSFLGGLKWCSDQSEIISNQYNNEPANIFEKIDEENEANLLAVLTETLDSLPVDEDGLPSFDALTDGAVTTDNEASPSSMPDGTPPPQEAEEPSLLKKLLLAPANTQLSYNECSGLSTQNHAANHTHRIRTNPAIVKTENSWSNKAKSICQQQKPQRRPCSELLKYLTTNDDPPHTKPTENRNSSRDKCASKKKSHTQPQSQHAQAKPTTLSLPLTPESPNDPKGSPFENKTIERTLSVELSGTAGLTPPTTPPHKANQDNPFKASPKLKPSCKTVVPPPTKRARYSECSGTQGSHSTKKGPEQSELYAQLSKSSGLSRGHEERKTKRPSLRLFGDHDYCQSLNSKTDILINISQELQDSRQLDFKDASCDWQGHICSSTDSGQCYLRETLEASKQVSPCSTRKQLQDQEIRAELNKHFGHPCQAVFDDKSDKTSELRDGDFSNEQFSKLPVFINSGLAMDGLFDDSEDESDKLSYPWDGTQPYSLFDVSPSCSSFNSPCRDSVSPPKSLFSQRPQRMRSRSRSFSRHRSCSRSPYSRSRSRSPGSRSSSRSCYYYESSHYRHRTHRNSPLYVRSRSRSPYSRRPRYDSYEAYEHERLKRDEYRKEHEKRESERAKQRERQKQKAIEERRVIYVGKIRPDTTRTELRDRFEVFGEIEECTVNLRDDGDSYGFITYRYTCDAFAALENGYTLRRSNETDFELYFCGRKQFFKSNYADLDTNSDDFDPASTKSKYDSLDFDSLLKEAQRSLRR
B1: the binding result in test [1] and in test [2] was “binds” throughout.

B2: PGC-1α overexpressed from adenovirus (Ad-PGC-1α) (protein, UniProt O70343 1-797)
chain: B1 chain
B2: the binding entry in test [3] was “binds”.
